# Experimental data from the supplement of paper PMC8728848.
# Some of the results follow.
# How the values were obtained:
# Assay in all cases: glycan array binding signal (z-score within array); higher = stronger binding
# Conditions in all cases: glycan notation: IUPAC condensed, linker removed
# [1] = biological target: GlcNAc(b1-3)Gal(b1-4)GlcNAc
# Summary of the method: (§1)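 From the Consortium for Functional Glycomics database, 3228 arrays were curated, keeping only those whose protein sequence was available. Binding is given as a within-array Z-score averaged across arrays sharing a protein sequence and across linkers. Negative Z-scores can be read as non-binding.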
# [2] = biological target: GlcNAc(b1-3)Gal(b1-4)GlcNAc(b1-3)Gal(b1-4)GlcNAc
# Summary of the method: as §1
# [3] = biological target: GlcNAc(b1-3)GalNAc
# Summary of the method: as §1
# [4] = biological target: GlcNAc(b1-3)Man
# Summary of the method: as §1
# [5] = biological target: GlcNAc(b1-3)[GlcNAc(b1-4)][GlcNAc(b1-6)]GlcNAc
# Summary of the method: as §1
# [6] = biological target: GlcNAc(b1-3)[GlcNAc(b1-6)]Gal(b1-4)GlcNAc
# Summary of the method: as §1
# [7] = biological target: GlcNAc(b1-3)[GlcNAc(b1-6)]GalNAc
# Summary of the method: as §1
# [8] = biological target: GlcNAc(b1-4)Gal(b1-4)GlcNAc
# Summary of the method: as §1
# [9] = biological target: GlcNAc(b1-4)GlcNAc
# Summary of the method: as §1
# [10] = biological target: GlcNAc(b1-4)GlcNAc(b1-4)GlcNAc
# Summary of the method: as §1
# [11] = biological target: GlcNAc(b1-4)GlcNAc(b1-4)GlcNAc(b1-4)GlcNAc(b1-4)GlcNAc
# Summary of the method: as §1
# [12] = biological target: GlcNAc(b1-4)GlcNAc(b1-4)GlcNAc(b1-4)GlcNAc(b1-4)GlcNAc(b1-4)GlcNAc
# Summary of the method: as §1
# [13] = biological target: GlcNAc(b1-4)[GlcNAc(b1-6)]GalNAc
# Summary of the method: as §1
# [14] = biological target: GlcNAc(b1-6)Gal(b1-4)GlcNAc
# Summary of the method: as §1
# [15] = biological target: GlcNAc(b1-6)GalNAc
# Summary of the method: as §1
# [16] = biological target: GlcNAc3Prop(b1-4)GlcNAc
# Summary of the method: as §1
# [17] = biological target: Kdn(a2-3)Gal(b1-3)GlcNAc
# Summary of the method: as §1
# [18] = biological target: Kdn(a2-3)Gal(b1-4)GlcNAc
# Summary of the method: as §1
# [19] = biological target: Man(a1-2)Man(a1-2)Man(a1-3)Man
# Summary of the method: as §1
# [20] = biological target: Man(a1-2)Man(a1-2)Man(a1-6)[Man(a1-3)]Man
# Summary of the method: as §1
# [21] = biological target: Man(a1-2)Man(a1-3)Man
# Summary of the method: as §1
# [22] = biological target: Man(a1-2)Man(a1-3)[Man(a1-2)Man(a1-6)]Man
# Summary of the method: as §1
# [23] = biological target: Man(a1-2)Man(a1-3)[Man(a1-2)Man(a1-6)]Man(a1-6)[Man(a1-2)Man(a1-2)Man(a1-3)]Man
# Summary of the method: as §1
# [24] = biological target: Man(a1-2)Man(a1-3)[Man(a1-2)Man(a1-6)]Man(a1-6)[Man(a1-2)Man(a1-2)Man(a1-3)]Man(b1-4)GlcNAc(b1-4)GlcNAc
# Summary of the method: as §1
# [25] = biological target: Man(a1-2)Man(a1-3)[Man(a1-6)]Man(a1-6)[Man(a1-2)Man(a1-3)]Man(b1-4)GlcNAc(b1-4)GlcNAc
# Summary of the method: as §1
# [26] = biological target: Man(a1-2)Man(a1-6)[Man(a1-3)]Man(a1-6)[Man(a1-2)Man(a1-2)Man(a1-3)]Man
# Summary of the method: as §1
# [27] = biological target: Man(a1-2)Man(a1-6)[Man(a1-3)]Man(a1-6)[Man(a1-2)Man(a1-2)Man(a1-3)]Man(b1-4)GlcNAc(b1-4)GlcNAc
# Summary of the method: as §1
# [28] = biological target: Man(a1-3)[Man(a1-6)]Man
# Summary of the method: as §1
# [29] = biological target: Man(a1-3)[Man(a1-6)]Man(a1-6)[Man(a1-2)Man(a1-3)]Man(b1-4)GlcNAc(b1-4)GlcNAc
# Summary of the method: as §1
# [30] = biological target: Man(a1-3)[Man(a1-6)]Man(a1-6)[Man(a1-3)]Man
# Summary of the method: as §1
# [31] = biological target: Man(a1-3)[Man(a1-6)]Man(a1-6)[Man(a1-3)]Man(b1-4)GlcNAc(b1-4)GlcNAc
# Summary of the method: as §1
# [32] = biological target: Man(a1-3)[Man(a1-6)]Man(b1-4)GlcNAc(b1-4)GlcNAc
# Summary of the method: as §1
# [33] = biological target: Man(a1-6)Man
# Summary of the method: as §1
# [34] = biological target: Man(b1-4)GlcNAc
# Summary of the method: as §1
# [35] = biological target: Neu5Ac(a2-3)Gal
# Summary of the method: as §1
# [36] = biological target: Neu5Ac(a2-3)Gal(b1-3)GalNAc
# Summary of the method: as §1
# [37] = biological target: Neu5Ac(a2-3)Gal(b1-3)GalNAc(b1-3)Gal(a1-4)Gal(b1-4)Glc
# Summary of the method: as §1
# [38] = biological target: Neu5Ac(a2-3)Gal(b1-3)GalNAc(b1-3)Gal(b1-4)GlcNAc
# Summary of the method: as §1
# [39] = biological target: Neu5Ac(a2-3)Gal(b1-3)GalNAc(b1-4)[Neu5Ac(a2-3)]Gal(b1-4)Glc
# Summary of the method: as §1
# [40] = biological target: Neu5Ac(a2-3)Gal(b1-3)GalNAc6S
# Summary of the method: as §1
# [41] = biological target: Neu5Ac(a2-3)Gal(b1-3)GlcNAc
# Summary of the method: as §1
# [42] = biological target: Neu5Ac(a2-3)Gal(b1-3)GlcNAc(b1-3)Gal(b1-3)GlcNAc
# Summary of the method: as §1
# [43] = biological target: Neu5Ac(a2-3)Gal(b1-3)GlcNAc6S
# Summary of the method: as §1
# [44] = biological target: Neu5Ac(a2-3)Gal(b1-3)[Fuc(a1-4)]GlcNAc
# Summary of the method: as §1
# [45] = biological target: Neu5Ac(a2-3)Gal(b1-3)[Fuc(a1-4)]GlcNAc(b1-3)Gal(b1-4)[Fuc(a1-3)]GlcNAc
# Summary of the method: as §1
binder,measurement,setting,value
"RfpC (Mycobacterium tuberculosum), O07747 (protein) MHHHHHHSSGRENLYFQGHMASKSAMAAGLVTASMSLSTAVAHAGPSPNWDAVAQCESGGNWAANTGNGKYGGLQFKPATWAAFGGVGNPAAASREQQIAVANRVLAEQGLDAWPTCGAASGLPIALWSKPAQGIKGS",glycan array binding signal (z-score),[1],-0.123
same,glycan array binding signal (z-score),[2],-0.618
same,glycan array binding signal (z-score),[3],-0.705
same,glycan array binding signal (z-score),[4],-0.648
same,glycan array binding signal (z-score),[5],0.738
same,glycan array binding signal (z-score),[6],-0.031
same,glycan array binding signal (z-score),[7],-1
same,glycan array binding signal (z-score),[8],-0.792
same,glycan array binding signal (z-score),[9],-0.077
same,glycan array binding signal (z-score),[10],-0.885
same,glycan array binding signal (z-score),[11],0.708
same,glycan array binding signal (z-score),[12],-1.11
same,glycan array binding signal (z-score),[13],-0.277
same,glycan array binding signal (z-score),[14],-0.235
same,glycan array binding signal (z-score),[15],0.185
same,glycan array binding signal (z-score),[16],-1.25
same,glycan array binding signal (z-score),[17],0.151
same,glycan array binding signal (z-score),[18],-0.421
same,glycan array binding signal (z-score),[19],2.92
same,glycan array binding signal (z-score),[20],-1
same,glycan array binding signal (z-score),[21],0.513
same,glycan array binding signal (z-score),[22],-1.43
same,glycan array binding signal (z-score),[23],0.7
same,glycan array binding signal (z-score),[24],-0.745
same,glycan array binding signal (z-score),[25],-0.308
same,glycan array binding signal (z-score),[26],0.818
same,glycan array binding signal (z-score),[27],-1.59
same,glycan array binding signal (z-score),[28],0.439
same,glycan array binding signal (z-score),[29],0.88
same,glycan array binding signal (z-score),[30],1.04
same,glycan array binding signal (z-score),[31],0.01
same,glycan array binding signal (z-score),[32],0.853
same,glycan array binding signal (z-score),[33],-0.622
same,glycan array binding signal (z-score),[34],-0.798
same,glycan array binding signal (z-score),[35],0.641
same,glycan array binding signal (z-score),[36],-0.523
same,glycan array binding signal (z-score),[37],-1.26
same,glycan array binding signal (z-score),[38],-1.31
same,glycan array binding signal (z-score),[39],-0.923
same,glycan array binding signal (z-score),[40],0.316
same,glycan array binding signal (z-score),[41],1.27
same,glycan array binding signal (z-score),[42],-0.255
same,glycan array binding signal (z-score),[43],-0.125
same,glycan array binding signal (z-score),[44],-1.26
same,glycan array binding signal (z-score),[45],1.49
